Measured values reported in PubChem BioAssay AID2685 (National Center for Advancing Translational Sciences (NCATS), 2010).
In all, about 320,000 compounds went through this assay and about 2,100 (0.66%) were called active. Inconclusive results, whose numbers are uncertain, are shown with a selection of clear calls. Calls come from the whole dose curve; as a rule, active = well fitted inhibition curve with a large enough effect in the signal ratio, with a control signal flat (not every such curve was filed as active); inconclusive = small, poorly fitted or top-dose-only effect, or effect the other way, or a change in a side signal; inactive = flat fitted curve, though single readings scatter; the % refers to the signal ratio. Potencies of inconclusive entries are doubtful fits and often do not repeat.

test: qHTS Assay for Lipid Storage Modulators in Drosophila S3 Cells; details: BODIPY lipid droplet fluorescence, 18-24 h, cells fed with added oleic acid; lipid storage change, negative = inhibition: at 46.1 µM (top of the series) unless noted
Procedure, shortened: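 Laser-scanning cytometry quantifies lipid droplet accumulation (500–530 nm total intensity; droplet/cell object ratio) in oleic acid-fed (400 uM added) Drosophila S3 cells treated with a concentration series. 20 uM Triacsin C defined 100% inhibition.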
% is set by controls: 0 for no effect and ±100 for the full control effect; potency is the fitted concentration of half-maximal effect.

| SMILES | lipid storage change, negative = inhibition | Potency | outcome |
| --- | --- | --- | --- |
| COC(=O)c1ccccc1N1C(=O)C2C(C1=O)[C@H]1C=C[C@@H]2C1 (stereo not given in full) | inconclusive: 23.7% |  |  |
| Cc1cccc(C)c1NC(=O)CN1CCN(CCCC(c2ccc(F)cc2)c2ccc(F)cc2)CC1 |  | inconclusive: 29.1 µM [cytotoxic, single point] |  |
| O=C(NNC(=O)C1CC1)c1ccccc1[N+](=O)[O-] | inconclusive: 150% |  |  |
| COc1ccccc1NC(=O)Nc1sccc1-c1nc2ccccc2s1 | inconclusive: -26.4% |  |  |
| COc1cccc(-c2nc3c(c(SCC(=O)N4CCOCC4)n2)Cc2c(CO)cnc(C)c2O3)c1 |  | active: 0.651 µM |  |
| C=CCC(CC(O)COCCC)C(=O)NNC(=S)Nc1ccccc1 (stereo not given) | inconclusive: 21.5% |  |  |
| CCOC(=O)C1=C(C)OC(N)=C(C#N)C1c1cc2c(cc1Br)OCO2 (stereo not given) |  | inconclusive: 3.66 µM [activator, partial curve] |  |
| CCOC(=O)CSc1nnc(NC(=O)c2cc([N+](=O)[O-])cc([N+](=O)[O-])c2)s1 | inconclusive: 9.98% |  |  |
| CC1C/C(=N\NC(N)=S)c2cc(Cl)ccc2S1 (stereo not given) | inconclusive: 5.9% |  |  |
| O=C(c1ccc(Sc2ccc(F)cc2)c([N+](=O)[O-])c1)N1CCOCC1 | inconclusive: 3.83% |  |  |
| CCc1nnc(NS(=O)(=O)c2ccc(NCc3cc(Cl)ccc3O)cc2)s1 |  | inconclusive: 2.31 µM [activator, single point] |  |
| O=C1c2ccccc2C(=O)c2c1cccc2N(CCO)CCO |  | inconclusive: 16.4 µM [falling, single point] |  |
| COc1ccc(CCNC(=O)COc2coc(CN3c4ccccc4CC3C)cc2=O)cc1OC (stereo not given) |  | inconclusive: 16.4 µM [falling, single point] |  |
| CC(=O)Oc1cccc(C(=O)Nc2ccc(NC(=O)c3cccs3)cc2)c1 | inconclusive: -20.6% |  |  |
| COCCN(CCOC)S(=O)(=O)c1ccc(/C(O)=C(\C#N)c2nc3ccccc3[nH]2)cc1 | inconclusive: -15% |  |  |
| O=C(COC(=O)Cc1c[nH]c2ccccc12)NC1CCS(=O)(=O)C1 (stereo not given) | inconclusive |  |  |
| COc1cccc(NC(=O)[C@@H]2CCCN2S(=O)(=O)c2cccc3cccnc23)c1 |  | inconclusive: 1.3 µM [activator, partial curve, poor fit] |  |
| Cc1cccc(NCc2ccc([N+](=O)[O-])s2)c1 |  | inconclusive: 1.3 µM [activator, full curve, poor fit] |  |
| COc1ccc(-c2ccc(/C=N/NC(=O)Cc3nnc(N)s3)o2)cc1Cl | inconclusive: 6.4% |  |  |
| CC(C)[C@H](NC(=O)N1CCn2c1nc1ccccc12)C(=O)N[C@H](C(=O)O)c1ccccc1 |  | inconclusive: 29.1 µM [falling, single point] |  |
| CC1CCCC(NC(=O)CN2C(=O)NC(C)(c3ccccc3)C2=O)C1C (stereo not given) | inconclusive |  |  |
| N/C(COc1ncn(-c2ccccc2)n1)=N\S(=O)(=O)c1ccccc1 |  | inconclusive: 0.731 µM [rising, single point] |  |
| O=c1[nH]nc(Cc2ccccn2)c2ccccc12 | inconclusive: -21% |  |  |
| CCOC(=O)C1=C(C)N(C)C(C)=C(C(=O)OCC)C1c1ccccc1 | inconclusive: 12.3% |  |  |
| CC1(C)O[C@H]2OC([C@H](O)CON3C(=O)c4ccccc4C3=O)[C@H](O)[C@H]2O1 (stereo not given in full) | inconclusive: 1.34% |  |  |

| SMILES | lipid storage change, negative = inhibition | Potency | outcome |
| --- | --- | --- | --- |
| O=C(Cc1ccc([N+](=O)[O-])cc1)Nc1nnc(C2CC2)s1 |  | inconclusive: 11.6 µM [activator, partial curve] |  |
| COc1cc(C(C)=O)ccc1OCC(=O)OCC(=O)c1cc(C)n(CC2CCCO2)c1C (stereo not given) |  | inconclusive: 6.51 µM [activator, partial curve] |  |
| Cc1ccc(C(=O)N2CC(C)OC(C)C2)c(Cl)c1 (stereo not given) |  | inconclusive: 16.4 µM [falling, partial curve] |  |
| CCn1c(=O)c(=O)n(CC)c2cc(S(=O)(=O)N3CCc4ccccc43)ccc21 | inconclusive: -7.83% |  |  |
| CCOC(=O)c1c(NC(=O)c2cccs2)sc2c1CCCC2 |  | inconclusive: 3.26 µM [rising, partial curve] |  |
| CC1CCN(C2(O)C(=O)Nc3ccc(Br)cc32)CC1 (stereo not given) | inconclusive: 15.2% |  |  |
| CCOc1ccc2cc(S(=O)(=O)n3ccnc3C)ccc2c1 |  | inconclusive: 0.146 µM [falling, full curve, poor fit] |  |
| Cc1ccc(N(CC(=O)NC2CCCCC2)C(=O)Cn2nnc(-c3ccc(C)o3)n2)cc1 | inconclusive: 23.5% |  |  |
| COCCCN1C(=O)C(=O)/C(=C(/O)c2ccc(OC(C)C)cc2)C1c1ccncc1 (stereo not given) |  | inconclusive: 0.411 µM [activator, full curve, poor fit] |  |
| O=C(c1ccco1)N1CCN(C2CCCC2)CC1 |  | inconclusive: 0.92 µM [falling, full curve, poor fit] |  |
| N#Cc1cccc(Cn2nnc(-c3ccccc3)n2)c1 | inconclusive: 47.3% |  |  |
| CCN(CC)C(=O)NC1CC2CCCC(C1)N2Cc1ccccc1 (stereo not given) |  | inconclusive: 0.731 µM [falling, single point] |  |
| Nc1nc(SCC(=O)c2cccc([N+](=O)[O-])c2)n[nH]1 |  | inconclusive: 29.1 µM [activator, single point] |  |
| C=CCn1c(NC(=O)c2ccccc2)nc2ccccc21 |  | inconclusive: 20.6 µM [falling, single point] |  |
| CC(=O)Nc1ccc(NC(=O)C(C)OC(=O)c2cccc(S(=O)(=O)N3CCCC3)c2)cc1 (stereo not given) | inconclusive: -21.4% |  |  |
| Cc1cc(C)c(S(C)(=O)=O)c(S(=O)(=O)c2ccc(Cl)cc2)n1 | inconclusive: 28% |  |  |
| c1ccc(CCNc2ncnc3c2nnn3Cc2ccccc2)cc1 |  | inconclusive: 2.91 µM [rising, partial curve] |  |
| O=C(CNC(=O)c1ccccc1)OCc1cc(=O)n2cc(Br)ccc2n1 | inconclusive: 18% |  |  |
| CCN(CC)C(=O)c1c[nH]c2ccc(S(=O)(=O)Nc3cc(C)cc(C)c3)cc2c1=O | inconclusive: -7.85% |  |  |
| CCOC(=O)C1CCCN(C/C=C/c2ccccc2[N+](=O)[O-])C1 (stereo not given) | inconclusive: -28.4% |  |  |
| CCN(C(=O)CN1CCN(S(=O)(=O)c2cc(Cl)ccc2Cl)CC1)c1c(N)n(Cc2ccccc2)c(=O)[nH]c1=O | inconclusive: -1.17% |  |  |
| CCN1C(=O)c2ccccc2S(=O)(=O)c2ccc(C(=O)NCCOC)cc21 | inconclusive: 213% |  |  |
| COc1ccc(C2=CC(=O)OC3(CCCCC3)O2)cc1 | inconclusive: 123% |  |  |
| CCOC(=O)N1CCN(CC(O)COCc2ccccc2)CC1 (stereo not given) | inconclusive: 75.9% [at 0.0737 µM] |  |  |
| O=C(COc1ccc(Br)cc1Br)NC(=S)Nc1cccc(CO)c1 | inconclusive: -4.02% |  |  |

Compounds from the list above with a furan ring, fused or not, in the order listed:

| SMILES | lipid storage change, negative = inhibition | Potency | outcome |
| --- | --- | --- | --- |
| COc1ccc(-c2ccc(/C=N/NC(=O)Cc3nnc(N)s3)o2)cc1Cl | inconclusive: 6.4% |  |  |
| Cc1ccc(N(CC(=O)NC2CCCCC2)C(=O)Cn2nnc(-c3ccc(C)o3)n2)cc1 | inconclusive: 23.5% |  |  |
| O=C(c1ccco1)N1CCN(C2CCCC2)CC1 |  | inconclusive: 0.92 µM [falling, full curve, poor fit] |  |

(more compounds)

| SMILES | lipid storage change, negative = inhibition | Potency | outcome |
| --- | --- | --- | --- |
| CCN(C(=O)COC(=O)c1nc(Cl)ccc1Cl)C1CCS(=O)(=O)C1 (stereo not given) | inconclusive |  |  |
| Cc1cc(C(=O)N/N=C/c2c(C)nn(-c3ccccc3)c2C)c(C)o1 | inconclusive: 8.65% |  |  |
| CCCn1c(SCC(=O)Nc2nc(C)c(C(=O)OC)s2)nnc1C(C)C |  | inconclusive: 2.91 µM [activator, single point] |  |
| Cc1ccc(NS(=O)(=O)c2cc3c(cc2C)NC(=O)CO3)cc1 | inconclusive: -15% |  |  |
| CCc1cccc(C)c1NC(=O)CN1CCN(S(=O)(=O)c2ccc(C(C)(C)C)cc2)CC1 | inconclusive: 24.7% |  |  |
| O=C(COC(=O)CNC(=O)c1ccc(Br)cc1)Nc1nnc(-c2ccccc2)o1 | inconclusive |  |  |
| COc1ccc(NC(=O)C2=CC(c3ccco3)=NS(=O)(=O)N2C)cc1OC | inconclusive: 8.21% |  |  |
| CCN(CC)S(=O)(=O)c1ccc(C)c(NC(=S)N2CCN(Cc3ccc4c(c3)OCO4)CC2)c1 | inconclusive: 28.3% [at 9.22 µM] |  |  |
| CCC(C)[C@H]1CNCCN1CCc1cccc(F)c1 (stereo not given in full) | inconclusive: -23.4% |  |  |
| COc1ccc(OCC(=O)OCC(=O)NCC2CCCCC2)cc1 | inconclusive: 5.61% |  |  |
| CCc1sc(NC(=O)CCC(=O)O)nc1-c1cc2ccccc2oc1=O | inconclusive: -9.43% |  |  |
| Cc1ccc(N(CC(=O)NC2CCC(C)CC2)S(=O)(=O)c2cccnc2)cc1 (stereo not given) | inconclusive: 21.8% |  |  |
| COc1cc(OC)c(/C=N/NC(=O)c2ccncc2)cc1Br | inconclusive: 4.63% |  |  |
| COc1ccc(-n2nc(C(=O)NCC(=O)N(C)Cc3ccccc3)c3ccccc3c2=O)cc1OC |  | inconclusive: 20.6 µM [falling, single point] |  |
| CCNC(=S)Nc1ccc(S(=O)(=O)Nc2cc(C)nc(C)n2)cc1 | inconclusive: -28.6% |  |  |
| CC(C)CCn1nnnc1C(c1ccccc1)N1CCN(C)CC1 (stereo not given) | inconclusive: 1.71% |  |  |
| CC(Sc1nc(-c2ccccc2)cc(C(F)(F)F)n1)C(=O)N1CCC(C(N)=O)CC1 (stereo not given) | inconclusive: -24.2% |  |  |
| COc1ccc2[nH]c(C(=O)NCCCn3ccnc3)cc2c1 | inconclusive: 11.3% |  |  |
| Cc1ccc(OCc2nnc(NC(=O)OCC(C)C)s2)c(C)c1 |  |  | inactive [at 46.1 µM] |
| COc1ccc(CC2(C)OC(c3ccccc3)=NN2C(C)=O)cc1 (stereo not given) | inconclusive: 51.2% |  |  |
| Cc1cc(C)c2c(NC(=O)CCl)nn(C)c2n1 |  | inconclusive: 5.17 µM [activator, single point] |  |
| O=[N+]([O-])c1cc(-c2nc(-c3ccncc3)no2)cc([N+](=O)[O-])c1 | inconclusive: 67.8% |  |  |
| O=C(Cc1ccccc1)NN1C(=O)/C(=C/c2ccccc2C(=O)O)SC1=S |  | inconclusive: 6.51 µM [falling, single point] |  |
| CCOc1ccc(CCNC(=O)COC(=O)c2cccc(OC)c2O)cc1OCC | inconclusive: -23.3% |  |  |
| CN(Cc1cn(C)nc1-c1ccccc1F)C1CCOC1 (stereo not given) |  | inconclusive: 14.6 µM [activator, single point] |  |

Some of the entries above, set out differently:
SMILES,"lipid storage change, negative = inhibition",Potency,outcome
c1ccc(CCNc2ncnc3c2nnn3Cc2ccccc2)cc1,,"inconclusive: 2.91 µM [rising, partial curve]",
CCN(CC)S(=O)(=O)c1ccc(C)c(NC(=S)N2CCN(Cc3ccc4c(c3)OCO4)CC2)c1,inconclusive: 28.3% [at 9.22 µM],,
COc1ccc(OCC(=O)OCC(=O)NCC2CCCCC2)cc1,inconclusive: 5.61%,,
